Test results: US6379959

Biological target: carboxypeptidase A
Assay: inhibition of carboxypeptidase A activity by RITC-labeled PCI

- binding: binds
Binder: EQHADPICNKPCKTHDDCSGAWFCQACWNSARTCGPYVG [potato carboxypeptidase inhibitor, isoform IIa, recombinant]

Results are given in words; binding and its absence hold for the method and conditions named. Binding can be weak; no strength is given.
